Measurements reported in PubChem BioAssay AID743121 (NCATS, 2013)

- Screen: 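Genes whose silencing strengthens cell killing by camptothecin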 (primary screen)
- Cells: MDA-MB-231 cells, a human breast cancer line
- Knock-down reagent: single siRNA against human genes, 20 nM siRNA (0.8 pmol per well)
- Timing: 120 h (drug added 48 h after transfection, read 72 h later)
- Conditions: camptothecin 20 nM (about EC30) for 72 h; vehicle 0.1% DMSO in parallel plates
- Measured: 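Cell viability by ATP luminescence (CellTiter-Glo) as % of non-targeting siRNA wells, and the log2 ratio of viability without drug over viability with camptothecin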
- Reading the numbers: log2 vehicle/camptothecin viability: higher = stronger sensitisation to camptothecin; viability with camptothecin and viability without drug: higher = more viable cells
- Rule for the call: 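Each gene scored by redundant siRNA activity (RSA) over its individual siRNA ratios; a gene is called active at p < 0.001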
Shown is one part, drawn at random, of about 26,000 reagents tested. In the full data, 167 (0.63%) got an active call. 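Calls are per gene from RSA p-values that are not deposited; an individual active-marked siRNA can sensitise only weakly.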 Unmarked entries are inactive. The numbers tell different reagents against one gene apart. Reagent sequences are not shown.

gene	reagent no.	log2 vehicle/camptothecin viability	viability with camptothecin (% of control)	viability without drug (% of control)
LYPD3	1	0.114	61.8	66.8
LYPD3	2	-0.189	73.5	64.5
LYPD3	3	0.221	30.2	35.2
LYPD3	4	0.126	66.3	72.3
GPR146	1	-0.527	89.8	62.3
GPR146	2	-0.707	55.2	33.8
GPR146	3	-0.603	42.2	27.8
GPR146	4	-0.112	88.7	82.1
PAK6	1	-0.229	69.1	59
PAK6	2	-0.453	84	61.4
PAK6	3	-0.344	35.2	27.7
PAK6	4	-0.0961	82.7	77.4
PHIP	1	-0.168	86.7	77.2
PHIP	2	-0.114	36.2	33.4
PHIP	3	-0.00514	60.2	60
PHIP	4	-0.0822	122	115

Next part; the last 3 above are carried over.
gene	reagent no.	log2 vehicle/camptothecin viability	viability with camptothecin (% of control)	viability without drug (% of control)
PHIP	2	-0.114	36.2	33.4
PHIP	3	-0.00514	60.2	60
PHIP	4	-0.0822	122	115
HRH3	1	-0.252	94.9	79.7
HRH3	2	-0.272	52.7	43.7
HRH3	3	-0.212	81.5	70.3
HRH3	4	-0.0078	124	123
CD79A	1	-0.132	46.1	42
CD79A	2	-0.089	96.4	90.6
CD79A	3	-0.287	95	77.8
CES1	1	-0.0999	80.3	75
CES1	2	-0.086	98.5	92.8
CES1	3	0.341	44.5	56.4
CES1	4	1.13	37.3	81.4
CES1	5	-0.412	64	48.1
CES1	6	-0.00527	37.6	37.5
CES1	7	0.0655	82.8	86.7
